Values of other authors, collected in patent USRE38386E1, “Retardation of metalloproteinase incidental to HIV and/or AIDS” (priority 1997, dated 2004).
Some of these results come from one statement about several compounds together.

Test system: monocytes
Conditions: present as chemoattractant

Substance: FMLP
- further enhancement of invasion by untreated and HIV-Tat-pretreated monocytes: more than 10 fold
